Assay [1] concerns the target FLAG-calpain 2 (human) (UniProt P17655). The assay is described as follows: co-IP; FLAG-calpain 2 or FLAG-calpain 1 overexpressed in 293T; IP with anti-FLAG antibody, Western blot with antibodies against endogenous MSC components; mouse IgG as negative control. For orientation: Immunoblotting shows a protein as a band on a membrane.
The target in another assay is FLAG-calpain 1 (human) (UniProt P07384). Described as above.
The next assay has as its target T1, FLAG-ArgRSΔN63 (human) (UniProt P54136).
T1 sequence: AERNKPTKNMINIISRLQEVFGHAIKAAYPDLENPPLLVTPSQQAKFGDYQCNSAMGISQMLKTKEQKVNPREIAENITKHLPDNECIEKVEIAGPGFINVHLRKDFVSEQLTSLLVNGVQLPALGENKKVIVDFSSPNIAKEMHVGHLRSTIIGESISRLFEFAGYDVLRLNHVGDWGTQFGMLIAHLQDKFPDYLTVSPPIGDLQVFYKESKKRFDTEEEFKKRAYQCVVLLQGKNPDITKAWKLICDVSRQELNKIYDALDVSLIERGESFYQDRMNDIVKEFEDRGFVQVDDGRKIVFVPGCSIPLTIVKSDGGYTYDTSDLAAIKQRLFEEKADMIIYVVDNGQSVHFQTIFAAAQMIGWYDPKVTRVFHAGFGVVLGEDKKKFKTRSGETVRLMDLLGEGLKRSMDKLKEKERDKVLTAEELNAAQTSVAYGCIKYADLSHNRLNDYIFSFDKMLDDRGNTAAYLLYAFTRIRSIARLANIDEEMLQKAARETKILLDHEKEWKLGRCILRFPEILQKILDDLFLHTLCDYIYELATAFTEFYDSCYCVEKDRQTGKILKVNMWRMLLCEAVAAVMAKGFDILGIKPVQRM
In words: co-IP; 293T extracts overexpressing FLAG-tagged full-length or truncated ArgRS, p43 or GlnRS; IP with FLAG antibody, Western blot with antibodies against MSC components.

Sequences of proteins named here, by UniProt entry; tags and fusion partners are left off. Residues count along the entry.
UniProt P17655, residues 20-700: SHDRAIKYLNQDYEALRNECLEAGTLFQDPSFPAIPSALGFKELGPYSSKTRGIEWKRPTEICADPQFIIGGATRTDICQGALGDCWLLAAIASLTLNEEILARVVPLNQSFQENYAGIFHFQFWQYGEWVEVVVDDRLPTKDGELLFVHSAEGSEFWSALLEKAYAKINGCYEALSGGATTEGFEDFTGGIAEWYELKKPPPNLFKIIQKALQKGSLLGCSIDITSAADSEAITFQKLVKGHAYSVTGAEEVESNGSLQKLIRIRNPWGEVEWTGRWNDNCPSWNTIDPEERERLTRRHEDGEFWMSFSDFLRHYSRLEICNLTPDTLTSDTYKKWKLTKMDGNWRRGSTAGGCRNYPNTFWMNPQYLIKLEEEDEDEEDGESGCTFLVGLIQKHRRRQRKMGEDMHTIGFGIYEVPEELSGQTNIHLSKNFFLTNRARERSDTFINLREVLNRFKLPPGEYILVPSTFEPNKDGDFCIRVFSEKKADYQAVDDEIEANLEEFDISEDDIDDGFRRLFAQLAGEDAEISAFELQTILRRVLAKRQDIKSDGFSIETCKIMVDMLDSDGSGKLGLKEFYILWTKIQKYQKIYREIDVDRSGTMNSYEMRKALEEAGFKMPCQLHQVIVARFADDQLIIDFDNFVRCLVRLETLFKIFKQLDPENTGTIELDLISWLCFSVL
UniProt P07384: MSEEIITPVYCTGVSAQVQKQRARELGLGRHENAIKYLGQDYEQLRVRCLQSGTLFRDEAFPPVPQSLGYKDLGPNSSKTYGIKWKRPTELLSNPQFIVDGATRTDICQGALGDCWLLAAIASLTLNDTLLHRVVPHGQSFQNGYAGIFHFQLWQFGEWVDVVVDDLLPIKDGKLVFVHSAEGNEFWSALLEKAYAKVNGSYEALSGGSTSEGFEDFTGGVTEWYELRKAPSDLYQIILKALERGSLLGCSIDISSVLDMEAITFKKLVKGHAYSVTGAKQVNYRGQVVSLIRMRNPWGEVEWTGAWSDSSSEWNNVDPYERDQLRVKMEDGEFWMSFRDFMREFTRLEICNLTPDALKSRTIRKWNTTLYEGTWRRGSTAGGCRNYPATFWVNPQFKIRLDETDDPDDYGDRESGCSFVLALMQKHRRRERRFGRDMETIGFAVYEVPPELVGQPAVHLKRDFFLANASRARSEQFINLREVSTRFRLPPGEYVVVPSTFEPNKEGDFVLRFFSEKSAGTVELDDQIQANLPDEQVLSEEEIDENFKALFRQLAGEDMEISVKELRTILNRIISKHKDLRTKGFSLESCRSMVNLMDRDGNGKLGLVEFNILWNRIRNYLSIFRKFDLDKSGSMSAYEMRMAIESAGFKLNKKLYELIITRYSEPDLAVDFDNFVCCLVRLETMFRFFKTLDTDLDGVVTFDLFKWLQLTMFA

Another assay deals with T2, FLAG-p43 (human) (UniProt Q12904).
T2 sequence: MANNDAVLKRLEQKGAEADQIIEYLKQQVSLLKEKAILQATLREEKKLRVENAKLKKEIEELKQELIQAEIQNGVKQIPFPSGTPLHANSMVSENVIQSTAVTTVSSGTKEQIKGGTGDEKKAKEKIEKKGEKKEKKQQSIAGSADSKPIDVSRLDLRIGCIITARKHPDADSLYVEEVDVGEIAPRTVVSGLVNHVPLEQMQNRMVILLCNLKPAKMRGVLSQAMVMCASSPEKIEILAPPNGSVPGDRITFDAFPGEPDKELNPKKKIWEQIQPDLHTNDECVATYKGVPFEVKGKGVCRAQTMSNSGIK
The assay is described as follows: co-IP; MSC purification: 293T transfected with FLAG-ArgRS or FLAG-p43, lysate on anti-FLAG M2 affinity gel 2 h at 4 °C, washed with PBS four times, eluted with 3xFLAG peptides; Coomassie staining and Western blots.

The target in assay [2] is T3, p43-N106 with C-terminal FLAG tag (human) (UniProt Q12904).
T3 sequence: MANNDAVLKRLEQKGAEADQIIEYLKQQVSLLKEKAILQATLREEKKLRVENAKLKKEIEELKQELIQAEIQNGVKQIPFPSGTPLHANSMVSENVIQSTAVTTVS
In words: co-IP; 293T extracts overexpressing FLAG-tagged full-length or truncated ArgRS, p43 or GlnRS; IP with FLAG antibody, Western blot with antibodies against MSC components.

Assay [3] deals with T4, p43ΔN106 with C-terminal FLAG tag (human) (UniProt Q12904).
T4 sequence: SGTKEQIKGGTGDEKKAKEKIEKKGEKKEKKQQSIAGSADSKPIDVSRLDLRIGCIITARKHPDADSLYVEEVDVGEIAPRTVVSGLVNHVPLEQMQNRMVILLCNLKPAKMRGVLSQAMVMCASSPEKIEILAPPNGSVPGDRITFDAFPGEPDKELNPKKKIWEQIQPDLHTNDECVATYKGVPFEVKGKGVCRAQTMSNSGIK
The description is as above.

Assay [4] deals with FLAG-calpain 2 (human) (UniProt P17655). The assay is described as follows: co-IP; data not shown; FLAG-calpain 2 overexpressed in 293T, co-immunoprecipitation.

This passage reports binding results from article PMC4646279.

No constants are given. Whether binding was seen depends on the method and setting. In cells and extracts the contact can be indirect. Some entries that bind do so weakly or less than the wild type. For some assays here: Where a sequence is shown, tags or fusion partners need not be part of it.

B1: glutaminyl-tRNA synthetase (GlnRS), endogenous (enzyme, UniProt P47897 1-775)
chain: MAALDSLSLFTSLGLSEQKARETLKNSALSAQLREAATQAQQTLGSTIDKATGILLYGLASRLRDTRRLSFLVSYIASKKIHTEPQLSAALEYVRSHPLDPIDTVDFERECGVGVIVTPEQIEEAVEAAINRHRPQLLVERYHFNMGLLMGEARAVLKWADGKMIKNEVDMQVLHLLGPKLEADLEKKFKVAKARLEETDRRTAKDVVENGETADQTLSLMEQLRGEALKFHKPGENYKTPGYVVTPHTMNLLKQHLEITGGQVRTRFPPEPNGILHIGHAKAINFNFGYAKANNGICFLRFDDTNPEKEEAKFFTAICDMVAWLGYTPYKVTYASDYFDQLYAWAVELIRRGLAYVCHQRGEELKGHNTLPSPWRDRPMEESLLLFEAMRKGKFSEGEATLRMKLVMEDGKMDPVAYRVKYTPHHRTGDKWCIYPTYDYTHCLCDSIEHITHSLCTKEFQARRSSYFWLCNALDVYCPVQWEYGRLNLHYAVVSKRKILQLVATGAVRDWDDPRLFTLTALRRRGFPPEAINNFCARVGVTVAQTTMEPHLLEACVRDVLNDTAPRAMAVLESLRVIITNFPAAKSLDIQVPNFPADETKGFHQVPFAPIVFIERTDFKEEPEPGFKRLAWGQPVGLRHTGYVIELQHVVKGPSGCVESLEVTCRRADAGEKPKAFIHWVSQPLMCEVRLYERLFQHKNPEDPTEVPGGFLSDLNLASLHVVDAALVDCSVALAKPFDKFQFERLGYFSVDPDSHQGKLVFNRTVTLKEDPGKV
On to B1, for which the binding result in the assay with FLAG-calpain 2 (human) [1] is “binds”; with FLAG-calpain 1 (human) it was “binds weakly”; with FLAG-ArgRSΔN63 (human), “no binding”; with FLAG-p43 (human) it was “binds”.

B2: arginyl-tRNA synthetase (ArgRS), endogenous (enzyme, UniProt P54136 1-660)
chain: MDVLVSECSARLLQQEEEIKSLTAEIDRLKNCGCLGASPNLEQLQEENLKLKYRLNILRKSLQAERNKPTKNMINIISRLQEVFGHAIKAAYPDLENPPLLVTPSQQAKFGDYQCNSAMGISQMLKTKEQKVNPREIAENITKHLPDNECIEKVEIAGPGFINVHLRKDFVSEQLTSLLVNGVQLPALGENKKVIVDFSSPNIAKEMHVGHLRSTIIGESISRLFEFAGYDVLRLNHVGDWGTQFGMLIAHLQDKFPDYLTVSPPIGDLQVFYKESKKRFDTEEEFKKRAYQCVVLLQGKNPDITKAWKLICDVSRQELNKIYDALDVSLIERGESFYQDRMNDIVKEFEDRGFVQVDDGRKIVFVPGCSIPLTIVKSDGGYTYDTSDLAAIKQRLFEEKADMIIYVVDNGQSVHFQTIFAAAQMIGWYDPKVTRVFHAGFGVVLGEDKKKFKTRSGETVRLMDLLGEGLKRSMDKLKEKERDKVLTAEELNAAQTSVAYGCIKYADLSHNRLNDYIFSFDKMLDDRGNTAAYLLYAFTRIRSIARLANIDEEMLQKAARETKILLDHEKEWKLGRCILRFPEILQKILDDLFLHTLCDYIYELATAFTEFYDSCYCVEKDRQTGKILKVNMWRMLLCEAVAAVMAKGFDILGIKPVQRM
For the molecule B2, the binding entry in the assay with FLAG-calpain 1 (human) is listed as “no binding”; in assay [2] it was “binds”; in assay [3], “no binding”; with FLAG-calpain 2 (human) [4] it was “binds”.
